From patent publication US20260021120A1, “METHOD FOR TREATING INFLAMMATORY SKIN DISEASE USING 6-DIAZO-5-OXO-L-NORLEUCINE” (Dermato Bio Inc., priority 2019, published 2026)
At least one compound was matched to its structure with a doubt left.

How the values were obtained:
TPA-induced inflammation = TPA-induced inflammation inhibiting experiment (mouse ear); format: in vivo, C57BL/6 female mice
Protocol: For an experiment of inducing and inhibiting inflammation using 12-O-tetradecanoylphorbol-13-acetate (TPA, Sigma), 14 week-old C57BL/6 female mice were purchased from NARA Biotech (Korea) and used. The purchased mice were acclimated for 7 days, and healthy animals were selected and tested. During the experimental period, the mice were raised while maintaining the environment at a temperature of 21 to 25° C., a relative humidity of 45 to 65% and a lighting time of 12 hours, and freely fed feed and drinking water.
First, the acclimated mice with similar characteristics such as a body weight and size were divided into five experimental groups of 3, and separately raised to confirm an anti-inflammation level. Inflammation was induced by first applying 1.0 ug of TPA to each of both ears of a mouse, and after 1 hour, a therapeutic material was applied, which was continued for 5 days. A mouse to which only acetone (Merck), which is a TPA solvent, was applied was set as a negative control (Vehicle), a mouse to which 1.0 ug of TPA dissolved in acetone was applied was set as a positive control and evaluated, and after TPA was applied, mice to which each of 3 mg of dexamethasone (DEX, Sigma), 0.6 mg of crisaborole (CRI, ChemScene) and 0.1 mg of 6-diazo-5-oxo-L-norleucine (DON, Sigma) was applied were set as experimental groups. […]

[1] = tested on: oxazolone-induced atopic dermatitis; assay: Oxazolone-induced atopic dermatitis inhibiting experiment (mouse ear); format: in vivo, female BALB/c mice; conditions: 0.1% (0.0272 mg)
Protocol: Using five 8-week-old female BALB/c mice per group, an effect of inhibiting oxazolone-induced atopic dermatitis was tested. In the experiment, dermatitis induced on the car of each mouse was treated with a therapeutic candidate, and it was attempted to confirm an effect depending on an administration route of a therapeutic agent through percutaneous application or subcutaneous injection. First, to induce atopic dermatitis in all groups excluding the negative control, 0.35 mg of 4-ethoxymethylene-2-phenyl-2-oxazolin-5-one (oxazolone, OXA) was mixed with 30 μl of acetone, and sensitization was preceded on each of the both ears with the 1% mixture. The same amount of a solvent without OXA was applied for the negative control (vehicle). From 7 days after the initial application of OXA, OXA (0.5%) was additionally applied every two days to induce dermatitis. For treatment groups, dexamethasone (DEX), tacrolimus (TAC), cyclosporine (CYCL), crisaborole (CRI) and DON were used. […]
FIGS. 14A and 14B were obtained by quantifying the total number of cells and the number of mast cells, which are infiltrated into the dermis, from the staining results. […]

C[C@@H]1C[C@H]2[C@@H]3CCC4=CC(=O)C=C[C@]4(C)[C@@]3(F)[C@@H](O)C[C@]2(C)[C@@]1(O)C(=O)CO [DEX, dexamethasone, reference compound]
visual skin condition of the ear area (TPA-induced inflammation; after 5 days of application, compared to a negative control (FIG. 6)): showed erythema and scaling
number of mast cells / penetration of mast cells into lesion (TPA-induced inflammation; toluidine blue staining, 200× image, after 5 days, DEX 3 mg, CRI 0.6 mg, DON 0.1 mg on ears, vs TPA positive control): significantly decreased
weight (g) of ear tissue ([1]; percutaneous application (FIG. 12A)): significantly decreased
thickness (mm) of ear tissue ([1]; percutaneous application (FIG. 12B)): significantly decreased
